In all, about 33,000 sequences were measured (“E-score (-0.5 to 0.5)”: median about -0.0059, highest 2% from about 0.26 on). The list shows a part of the results.
What follows are sequences tested against T1, Cin5 (UniProt P40917) (assay: PBM E-score (8-mer binding enrichment) (E-score (-0.5 to 0.5)); higher = stronger / more preferred TF binding). Settings: protein concentration: 100 nM; construct: GST-full length.
T1 sequence: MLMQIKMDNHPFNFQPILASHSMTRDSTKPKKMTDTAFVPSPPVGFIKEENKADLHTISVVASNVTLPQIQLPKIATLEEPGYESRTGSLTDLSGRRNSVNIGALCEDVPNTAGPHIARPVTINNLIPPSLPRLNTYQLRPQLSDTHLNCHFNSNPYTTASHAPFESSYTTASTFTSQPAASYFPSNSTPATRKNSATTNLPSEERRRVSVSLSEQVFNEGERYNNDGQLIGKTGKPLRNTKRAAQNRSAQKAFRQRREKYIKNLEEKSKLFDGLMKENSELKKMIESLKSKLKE
Description: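 Universal 'all 10-mer' protein binding microarrays (Agilent AMADID 015681) probed with GST-tagged S. cerevisiae TFs (full-length or DBD) made by in vitro transcription/translation (PURExpress), about 100-200 nM. Bound TF was detected with fluorescent anti-GST. Each ungapped 8-mer (which stands for itself and its reverse complement) is scored by the PBM enrichment score (E-score), a modified Wilcoxon-Mann-Whitney statistic from -0.5 to +0.5, computed with the Universal PBM Analysis Suite. Scale: above 0.35 generally sequence-specific binding.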

Sequence | PBM E-score
CGGCTCCC | -0.256
CGCGCTTC | -0.0491
CAAGTGGC | 0.173
GCCAAGAA | -0.00914
TCTCAAAA | 0.0986
GGTTAGGA | -0.246
AACCATAT | 0.17
CGGAGCGA | 0.157
GGAGTAAA | 0.232
ATCGCGCC | 0.16
AACAGCTT | 0.0565
CTATACAC | -0.0555
AGAGGACG | -0.0674
CTACTTGC | 0.0723
CCTGCCAA | -0.163
TATCTCCA | 0.112
AGTGCTAG | 0.00775
ACTACCCC | -0.163
AATCTGTC | 0.163
GTGAACAA | 0.0903
ACGATACA | 0.0211
AAAGACGC | -0.158

Sequence | PBM E-score
ACGCTTGC | -0.182
AAACAGGG | -0.0266
ACCCCGAA | 0.115
AAGTCCTA | -0.218
AACTAGCT | 0.0322
ATGCGTTC | 0.0798
ATCGGAGA | 0.00253
GAACGGCC | -0.155
TGTAAAAA | 0.0501
AACGCTGA | -0.024
CAGGATGA | 0.0756
CCTATCAA | 0.112
CAGCGGCG | 0.109
TACTTAAA | 0.0272
CGCAGGAA | -0.0665
AGCAAAAG | -0.109
CCTAGAAA | -0.0202
AAGTGTAT | -0.00912
CTCGATAC | 0.14
CGCCGCAA | 0.0347
CGATTGCC | -0.0466
AGTGCACG | -0.0877

Sequence | PBM E-score
AGGTTTTA | -0.128
CAATATGC | 0.112
ATCGCGTC | 0.144
CGCTCCTA | -0.0856
ACTTGACT | -0.0326
ACCAGTTG | -0.0739
CTAGTCTA | -0.181
TCCCTGAA | -0.0382
AAATTCGT | 0.256
AACTCTAT | -0.00975
ACTACTAA | 0.177
CCCGGTAA | -0.128
AATCTTTA | -0.014
CGTGTAAA | -0.142
AAAAGCTC | 0.0134
CCTTGGTC | -0.209
CTATAGAG | -0.0767
CGCCACGC | -0.274
AACCAGGA | -0.00079
GTGACCAC | -0.153
CCTAGACC | -0.0746
CTACCATA | 0.0559

Sequence | PBM E-score
TAGCAAAA | 0.019
CCCGTGGA | -0.111
GAGGAACA | -0.0449
CCCCCCAA | -0.456
CCGCCGTA | -0.047
GCGCCTAC | 0.0746
CTGTGACC | 0.0399
ACACGCAT | -0.0266
CACCAAAC | 0.12
ATGCGCTG | -0.0401
ATTACTTG | 0.202
GATCCTTA | -0.0238
CTGGATCC | 0.019
AGAAGGCG | -0.121
GGGTGGGA | 0.141
AATACGGT | -0.0563
GAACTCTC | -0.0674
GGAAGACA | -0.0332
AATACCAT | 0.213
TAGTCATA | 0.0307
CATGTAAA | -0.054
ACTATTAG | 0.147

Sequence | PBM E-score
AAAAGGTA | 0.00489
ACTCCGAA | -0.102
ATAAAGAA | 0.142
CACCAAAA | 0.152
AGGAGTGG | -0.145
CACTAGGC | 0.0487
TCTGGTCA | 0.0296
AACACTGC | 0.196
ACTACGGA | 0.0361
ATTCAAGC | 0.127
ATCGGTAG | -0.0982
ACCAGGGC | -0.317
CAATCATA | 0.201
TAAGGGCA | -0.0783
GATAAAAC | 0.198
TACCCGGA | 0.0801
CCGAGTCA | -0.0645
AGTCAGCC | 0.161
CCAATGGC | -0.078
CATGAATC | 0.0129
AATCGTAA | 0.25
CCAGCATC | -0.117

Already shown: entries from further up.
Sequence | PBM E-score
CTCGATAC | 0.14
CGCCGCAA | 0.0347
CGATTGCC | -0.0466
AGTGCACG | -0.0877
AGGTTTTA | -0.128
CAATATGC | 0.112
ATCGCGTC | 0.144
CGCTCCTA | -0.0856
ACTTGACT | -0.0326
ACCAGTTG | -0.0739
CTAGTCTA | -0.181
TCCCTGAA | -0.0382
AAATTCGT | 0.256
AACTCTAT | -0.00975
ACTACTAA | 0.177
CCCGGTAA | -0.128
AATCTTTA | -0.014
CGTGTAAA | -0.142
AAAAGCTC | 0.0134
CCTTGGTC | -0.209
CTATAGAG | -0.0767
CGCCACGC | -0.274
AACCAGGA | -0.00079
GTGACCAC | -0.153
CCTAGACC | -0.0746
CTACCATA | 0.0559
TAGCAAAA | 0.019
CCCGTGGA | -0.111
GAGGAACA | -0.0449
